Reference: PubChem BioAssay AID256 (DTP/NCI, 2004)
The list shows only some results of the screen, not a fair sample: it is rich in T/C values a quarter to a half above the control, in often repeated tests (any T/C) and in doses without a T/C. Further doses and runs are listed elsewhere. T/C: endpoint of the treated group in % of that of the vehicle group. Some entries give survivors of the animals treated and no T/C: the source files T/C as zero there, which appears to mark a toxic dose or a test without result, not a measured value. Some survivor counts are full or nearly so, which does not show that the dose was tolerated: survival well below the control is almost never listed, so the zero probably covers shortened survival too. Survivors were counted at the toxicity check, usually on the fifth day, unless a day is given; later deaths do not show. Schedules are NCI's codes, taken here to give the interval after Q, in days (D) or hours (H), and the number of doses after X. Some entries hold several experiments; the results are listed from low to high. Where survival is the endpoint, the PubChem record calls one and a half times the control and up active, and a quarter to a half above the control has no call in these data; cut-offs in other NCI protocols can differ. Some T/C values carry the count of animals alive at the toxicity check (mostly the fifth day); without a count, all were alive then.

Tested on: CD2F1 mice, L1210 leukemia ip, survival T/C
Experiment: NCI In Vivo Anticancer Drug Screen. Data for tumor model L1210 Leukemia (intraperitoneal) in CD2F1 (CDF1) mice
Conditions: higher T/C = longer survival
How it was run: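 Transplantable tumor in mice; compound-treated vs vehicle-treated groups. Read-out = treated/control ratio of the measured endpoint.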

[1] = T/C endpoint: mean survival time, dose: 3.75 mg/kg/injection, schedule: Q01DX009 (ip), vehicle: distilled water + alcohol
[2] = T/C endpoint: mean survival time, dose: 100.0 mg/kg/injection, schedule: Q04DX003 (ip), vehicle: saline with Tween-80
[3] = T/C endpoint: mean survival time, dose: 200.0 mg/kg/injection, schedule: Q04DX003 (ip), vehicle: saline with Tween-80
[4] = T/C endpoint: mean survival time, dose: 400.0 mg/kg/injection, schedule: Q04DX003 (ip), vehicle: saline with Tween-80

`C/C=C/C=C/c1cc2cc3c(c(O)c2c(=O)[nH]1)C1(CC3)C(O)=c2c(=O)c3c(=O)cc(OC)c(=O)c=3c(=O)c2=C1O` (stereo not given) was tested, and the survivor count (T/C endpoint: mean survival time, dose: 0.01 mg/kg/injection, schedule: Q01DX009 (ip), vehicle: DMSO) was 6 of 6, the survivor count (T/C endpoint: mean survival time, dose: 0.03 mg/kg/injection, schedule: Q01DX009 (ip), vehicle: DMSO) was 6 of 6 and the survivor count (T/C endpoint: mean survival time, dose: 0.12 mg/kg/injection, schedule: Q01DX009 (ip), vehicle: DMSO) was 3 of 6. For the same compound, the survivor count (T/C endpoint: mean survival time, dose: 0.25 mg/kg/injection, schedule: Q01DX009 (ip), vehicle: DMSO) was 3 of 6, the survivor count (T/C endpoint: mean survival time, dose: 0.5 mg/kg/injection, schedule: Q01DX009 (ip), vehicle: DMSO) was 0 of 6 and the survivor count (T/C endpoint: mean survival time, dose: 1.0 mg/kg/injection, schedule: Q01DX009 (ip), vehicle: DMSO) was 0 of 6 and 9 of 10. The survivor count (T/C endpoint: mean survival time, dose: 2.0 mg/kg/injection, schedule: Q01DX009 (ip), vehicle: DMSO) was 0 of 6 and 2 of 10, the survivor count (T/C endpoint: median survival time, dose: 0.06 mg/kg/injection, schedule: Q01DX009 (ip), vehicle: DMSO) was 1 of 6 and the survivor count (T/C endpoint: median survival time, dose: 0.12 mg/kg/injection, schedule: Q01DX009 (ip), vehicle: DMSO) was 5 of 6.

In the case of `COc1cc(N=C(N)N=C(N)N)c2ncccc2c1`, the survivor count (T/C endpoint: mean survival time, dose: 400.0 mg/kg/injection, schedule: Q04DX002 (ip), vehicle: saline) is reported as 0 of 3.

For `CCC[CH2][Sn]1([CH2]CCC)[O]C2C(CO)OC(n3c(Br)c(C(N)=O)c4c(N)ncnc43)C2[O]1` (stereo not given), the survivor count (T/C endpoint: mean survival time, dose: 6.25 mg/kg/injection, schedule: Q01DX009 (ip), vehicle: distilled water + Tween-80) was 5 of 6, the survivor count (T/C endpoint: mean survival time, dose: 12.5 mg/kg/injection, schedule: Q01DX009 (ip), vehicle: distilled water + Tween-80) was 1 of 6 and the survivor count (T/C endpoint: mean survival time, dose: 25.0 mg/kg/injection, schedule: Q01DX009 (ip), vehicle: distilled water + Tween-80) was 0 of 6. The survivor count (T/C endpoint: mean survival time, dose: 50.0 mg/kg/injection, schedule: Q01DX009 (ip), vehicle: distilled water + Tween-80) was 0 of 6, the survivor count (T/C endpoint: mean survival time, dose: 100.0 mg/kg/injection, schedule: Q01DX009 (ip), vehicle: distilled water + Tween-80) was 0 of 6 and the survivor count (T/C endpoint: mean survival time, dose: 200.0 mg/kg/injection, schedule: Q01DX009 (ip), vehicle: distilled water + Tween-80) was 0 of 6. For the same compound, the survivor count (T/C endpoint: mean survival time, dose: 400.0 mg/kg/injection, schedule: Q01DX009 (ip), vehicle: distilled water + Tween-80) was 0 of 6.

`CC1=C(CCC#N)C(=O)C(CCC#N)C(C)(C)C1` (stereo not given) was tested, and the survivor count (T/C endpoint: mean survival time, dose: 400.0 mg/kg/injection, schedule: Q04DX002 (ip), vehicle: saline with Tween-80) was 0 of 3.

For `COC(=O)C[C@](O)(CCCC(C)(C)O)C(=O)O[C@@H]1C(OC)=C[C@]23CCCN2CCc2cc4c(cc2[C@H]13)OCO4`, the T/C (T/C endpoint: median survival time, dose: 1.0 mg/kg/injection, schedule: Q01DX009 (ip), vehicle: acid diluted with saline) was 128 % of control, the T/C (T/C endpoint: median survival time, dose: 1.25 mg/kg/injection, schedule: Q01DX009 (ip), vehicle: acid diluted with saline) was 128 % of control and the T/C (T/C endpoint: median survival time, dose: 1.5 mg/kg/injection, schedule: Q01DX009 (ip), vehicle: acid diluted with saline) was 132 % of control. For the same compound, the T/C (T/C endpoint: median survival time, dose: 1.75 mg/kg/injection, schedule: Q01DX009 (ip), vehicle: acid diluted with saline) was 136 % of control, the T/C (T/C endpoint: median survival time, dose: 2.0 mg/kg/injection, schedule: Q01DX009 (ip), vehicle: acid diluted with saline) was 133 % of control and the T/C (T/C endpoint: median survival time, dose: 2.25 mg/kg/injection, schedule: Q01DX009 (ip), vehicle: acid diluted with saline) was 130 % of control.

For `CC(CNC1CCCCC1)OC(=O)c1ccc(N(C)C)cc1` (stereo not given), the survivor count (T/C endpoint: mean survival time, dose: 300.0 mg/kg/injection, schedule: Q01DX001 (ip), vehicle: saline) was 2 of 6.

For `COc1ccc2c(NCCCCCCCCNc3c4ccccc4nc4cc(OC)ccc34)c3ccccc3nc2c1`, the T/C (T/C endpoint: mean survival time, dose: 0.93 mg/kg/injection, schedule: Q01DX009 (ip), vehicle: distilled water + alcohol) was 136 % of control, the survivor count (T/C endpoint: mean survival time, dose: 0.94 mg/kg/injection, schedule: Q01DX009 (ip), vehicle: distilled water + alcohol) was 0 of 10 and the T/C (T/C endpoint: mean survival time, dose: 1.87 mg/kg/injection, schedule: Q01DX009 (ip), vehicle: distilled water + alcohol) was 139 % of control. The T/C [1] was 113, 123, 128 % of control, the survivor count [1] was 6 of 10 and the survivor count (T/C endpoint: mean survival time, dose: 7.5 mg/kg/injection, schedule: Q01DX009 (ip), vehicle: distilled water + alcohol) was 2 of 10, 2 of 6, 6 of 6. The survivor count (T/C endpoint: mean survival time, dose: 15.0 mg/kg/injection, schedule: Q01DX009 (ip), vehicle: distilled water + alcohol) was 2 of 6, the survivor count (T/C endpoint: mean survival time, dose: 30.0 mg/kg/injection, schedule: Q01DX009 (ip), vehicle: distilled water + alcohol) was 0 of 6 and the survivor count (T/C endpoint: median survival time, dose: 8.0 mg/kg/injection, schedule: Q01DX009 (ip), vehicle: distilled water + alcohol) was 7 of 10. For the same compound, the survivor count (T/C endpoint: median survival time, dose: 16.0 mg/kg/injection, schedule: Q01DX009 (ip), vehicle: distilled water + alcohol) was 1 of 10.

In the case of `OCC1OC(n2cnc3cc(Cl)c(Cl)cc32)C(O)C1O` (stereo not given), the T/C (T/C endpoint: median survival time, dose: 200.0 mg/kg/injection, schedule: Q01DX009 (ip), vehicle: saline with Tween-80, evaluated on day 25) is reported as 148 % of control [5 of 6 alive], the T/C (T/C endpoint: median survival time, dose: 200.0 mg/kg/injection, schedule: Q01DX009 (ip), vehicle: saline with Tween-80, evaluated on day 30) is reported as 128 % of control [5 of 6 alive] and the survivor count (T/C endpoint: median survival time, dose: 400.0 mg/kg/injection, schedule: Q01DX009 (ip), vehicle: saline with Tween-80) is reported as 0 of 6, 1 of 6, 2 of 6. For the same compound, the survivor count (T/C endpoint: median survival time, dose: 800.0 mg/kg/injection, schedule: Q01DX009 (ip), vehicle: saline with Tween-80) was 0 of 6.

In the case of `CC[n+]1ccccc1CCC(=O)Nc1ccccc1`, the survivor count [2] is reported as 0 of 6, the survivor count [3] is reported as 0 of 6 and the survivor count [4] is reported as 0 of 6.

For `CC[N+](CC)(CCOc1ccc(C(C)(C)CC(C)(C)C)cc1)Cc1ccccc1`, the survivor count (T/C endpoint: mean survival time, dose: 10.0 mg/kg/injection, schedule: Q04DX003 (ip), vehicle: saline) was 5 of 6, the survivor count (T/C endpoint: mean survival time, dose: 20.0 mg/kg/injection, schedule: Q04DX003 (ip), vehicle: saline) was 2 of 6 and the survivor count [2] was 0 of 6. For the same compound, the survivor count [3] was 0 of 6 and the survivor count [4] was 0 of 6.

`NS(=O)(=O)c1cc(Cl)cc(Cl)c1O` was tested, and the survivor count [2] was 6 of 6.

With `O=C(CC(O)(C(F)(F)F)C(F)(F)F)c1ccc(C(=O)CC(O)(C(F)(F)F)C(F)(F)F)cc1` the survivor count (T/C endpoint: mean survival time, dose: 400.0 mg/kg/injection, schedule: Q04DX003 (ip), vehicle: other) was 1 of 6.

For `Cc1sc(Cc2ccccc2)nc1-c1ccc(N=Cc2ccc(N(CCOS(C)(=O)=O)CCOS(C)(=O)=O)cc2)cc1`, the survivor count (T/C endpoint: mean survival time, dose: 100.0 mg/kg/injection, schedule: Q01DX009 (ip), vehicle: saline with Tween-80) was 5 of 6.

In the case of `S=c1n(Cc2ccccc2)cnc2ncnn12`, the survivor count (T/C endpoint: mean survival time, dose: 400.0 mg/kg/injection, schedule: Q04DX003 (ip), vehicle: Klucel (hydroxypropylcellulose) (HPC)) is reported as 1 of 6.

`COC1=C(C)C(=O)C2=C(C1=O)C1C3CC4=C(C(=O)C(OC)=C(C)C4=O)C(CNC(=O)C(C)=O)N3C(C#N)C(C2)N1C` (stereo not given) was tested, and the survivor count (T/C endpoint: median survival time, dose: 2.0 mg/kg/injection, schedule: Q01DX009 (ip), vehicle: Klucel (hydroxypropylcellulose) (HPC)) was 4 of 6, the survivor count (T/C endpoint: median survival time, dose: 4.0 mg/kg/injection, schedule: Q01DX009 (ip), vehicle: Klucel (hydroxypropylcellulose) (HPC)) was 0 of 6 and the survivor count (T/C endpoint: median survival time, dose: 2000.0 micrograms/kg/injection, schedule: Q01DX009 (ip), vehicle: Klucel (hydroxypropylcellulose) (HPC)) was 0 of 6.

In the case of `N#CCC(=O)N/N=C/c1ccc2c(c1)CCC2`, the survivor count [2] is reported as 6 of 6, the survivor count [3] is reported as 5 of 6 and the survivor count [4] is reported as 6 of 6.

With `CCC(C)(C)c1ccc(O)cc1` the survivor count [4] was 6 of 6.

`CCCCCCCCCCCCS(=O)(=O)O` was tested, and the survivor count [4] was 0 of 7.

`CCCCNC(=S)N(CCCC)CCCC` was tested, and the survivor count (T/C endpoint: mean survival time, dose: 400.0 mg/kg/injection, schedule: Q01DX009 (ip), vehicle: saline with Tween-80) was 1 of 6.
